Experimental findings from publication doi:10.1101/059964 are described below.

Sequences of proteins named here, by UniProt entry; tags and fusion partners are left off.
UniProt Q15022: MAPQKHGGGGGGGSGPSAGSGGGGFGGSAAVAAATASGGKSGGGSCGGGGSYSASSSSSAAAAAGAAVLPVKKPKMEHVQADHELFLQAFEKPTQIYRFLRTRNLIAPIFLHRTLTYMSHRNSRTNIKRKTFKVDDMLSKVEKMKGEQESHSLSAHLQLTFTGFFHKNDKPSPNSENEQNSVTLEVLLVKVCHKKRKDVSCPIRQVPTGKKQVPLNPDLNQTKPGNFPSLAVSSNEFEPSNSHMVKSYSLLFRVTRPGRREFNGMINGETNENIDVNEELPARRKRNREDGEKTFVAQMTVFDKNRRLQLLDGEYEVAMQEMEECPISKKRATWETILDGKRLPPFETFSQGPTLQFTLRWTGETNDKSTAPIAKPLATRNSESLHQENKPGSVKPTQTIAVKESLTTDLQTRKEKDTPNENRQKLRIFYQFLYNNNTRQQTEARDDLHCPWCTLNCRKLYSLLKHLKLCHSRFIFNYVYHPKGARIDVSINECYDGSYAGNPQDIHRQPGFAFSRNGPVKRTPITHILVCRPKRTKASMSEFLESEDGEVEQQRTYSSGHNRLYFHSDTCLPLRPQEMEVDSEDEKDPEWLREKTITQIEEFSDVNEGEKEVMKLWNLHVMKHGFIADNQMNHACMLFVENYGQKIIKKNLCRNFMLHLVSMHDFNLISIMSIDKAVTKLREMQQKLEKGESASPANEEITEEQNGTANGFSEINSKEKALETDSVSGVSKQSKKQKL
UniProt Q92800: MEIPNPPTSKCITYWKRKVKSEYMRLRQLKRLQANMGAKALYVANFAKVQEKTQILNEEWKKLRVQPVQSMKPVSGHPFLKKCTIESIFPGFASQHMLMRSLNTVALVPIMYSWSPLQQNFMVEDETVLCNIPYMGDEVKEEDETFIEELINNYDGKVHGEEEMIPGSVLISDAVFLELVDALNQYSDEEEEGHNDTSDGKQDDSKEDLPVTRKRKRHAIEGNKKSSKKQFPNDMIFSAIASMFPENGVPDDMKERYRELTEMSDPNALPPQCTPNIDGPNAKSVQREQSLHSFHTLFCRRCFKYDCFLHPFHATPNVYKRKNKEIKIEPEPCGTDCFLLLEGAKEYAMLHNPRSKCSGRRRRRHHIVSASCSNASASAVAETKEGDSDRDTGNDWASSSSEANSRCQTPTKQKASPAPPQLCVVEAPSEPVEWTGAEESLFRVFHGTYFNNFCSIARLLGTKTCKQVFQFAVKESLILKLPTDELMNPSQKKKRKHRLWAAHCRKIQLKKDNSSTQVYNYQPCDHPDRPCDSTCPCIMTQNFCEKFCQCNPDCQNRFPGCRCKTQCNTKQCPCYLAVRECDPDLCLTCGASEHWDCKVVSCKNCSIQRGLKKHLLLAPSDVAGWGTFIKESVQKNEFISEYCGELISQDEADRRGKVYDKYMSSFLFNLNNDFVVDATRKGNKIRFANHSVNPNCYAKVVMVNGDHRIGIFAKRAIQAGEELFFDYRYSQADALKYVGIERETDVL
UniProt Q13185: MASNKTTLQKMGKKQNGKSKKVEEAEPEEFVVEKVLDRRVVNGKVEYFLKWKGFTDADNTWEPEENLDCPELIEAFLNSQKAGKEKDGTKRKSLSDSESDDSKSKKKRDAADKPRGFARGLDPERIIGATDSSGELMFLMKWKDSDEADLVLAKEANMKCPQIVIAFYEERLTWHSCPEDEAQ
UniProt Q96KQ7: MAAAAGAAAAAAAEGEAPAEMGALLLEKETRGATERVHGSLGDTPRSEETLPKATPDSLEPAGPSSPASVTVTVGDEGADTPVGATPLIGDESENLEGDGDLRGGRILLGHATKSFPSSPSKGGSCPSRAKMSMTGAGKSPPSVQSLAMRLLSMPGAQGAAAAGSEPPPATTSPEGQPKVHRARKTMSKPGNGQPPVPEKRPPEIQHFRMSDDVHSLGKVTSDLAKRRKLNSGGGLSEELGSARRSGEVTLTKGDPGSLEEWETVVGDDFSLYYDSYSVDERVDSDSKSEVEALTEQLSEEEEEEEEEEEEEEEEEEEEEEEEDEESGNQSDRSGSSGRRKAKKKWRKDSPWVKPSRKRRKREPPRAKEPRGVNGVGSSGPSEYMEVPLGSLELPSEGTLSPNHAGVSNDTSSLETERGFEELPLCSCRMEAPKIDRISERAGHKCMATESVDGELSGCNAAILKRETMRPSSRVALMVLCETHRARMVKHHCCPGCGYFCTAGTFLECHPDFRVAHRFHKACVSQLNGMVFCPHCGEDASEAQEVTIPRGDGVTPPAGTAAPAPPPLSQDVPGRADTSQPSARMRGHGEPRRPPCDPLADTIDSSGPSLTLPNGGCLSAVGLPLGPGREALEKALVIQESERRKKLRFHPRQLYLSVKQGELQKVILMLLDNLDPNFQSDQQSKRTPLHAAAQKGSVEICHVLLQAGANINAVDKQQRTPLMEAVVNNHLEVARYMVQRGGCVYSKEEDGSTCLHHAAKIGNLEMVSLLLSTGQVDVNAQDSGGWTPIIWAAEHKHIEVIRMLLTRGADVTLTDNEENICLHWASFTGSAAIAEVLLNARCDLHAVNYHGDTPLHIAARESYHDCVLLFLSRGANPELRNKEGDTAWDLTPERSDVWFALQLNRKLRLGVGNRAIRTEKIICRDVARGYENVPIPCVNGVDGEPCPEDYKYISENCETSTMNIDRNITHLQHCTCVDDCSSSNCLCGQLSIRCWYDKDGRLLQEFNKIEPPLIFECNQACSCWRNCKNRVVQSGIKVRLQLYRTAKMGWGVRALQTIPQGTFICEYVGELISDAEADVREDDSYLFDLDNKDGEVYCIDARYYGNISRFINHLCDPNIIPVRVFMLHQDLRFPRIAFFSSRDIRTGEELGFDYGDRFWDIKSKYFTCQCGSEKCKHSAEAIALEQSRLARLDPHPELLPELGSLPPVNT
UniProt P83916: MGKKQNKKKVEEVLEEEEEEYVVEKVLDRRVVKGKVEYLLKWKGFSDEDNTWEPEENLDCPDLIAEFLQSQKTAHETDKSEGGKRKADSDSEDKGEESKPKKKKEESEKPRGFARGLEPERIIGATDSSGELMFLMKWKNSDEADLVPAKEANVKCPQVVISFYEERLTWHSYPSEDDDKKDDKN
UniProt P45973: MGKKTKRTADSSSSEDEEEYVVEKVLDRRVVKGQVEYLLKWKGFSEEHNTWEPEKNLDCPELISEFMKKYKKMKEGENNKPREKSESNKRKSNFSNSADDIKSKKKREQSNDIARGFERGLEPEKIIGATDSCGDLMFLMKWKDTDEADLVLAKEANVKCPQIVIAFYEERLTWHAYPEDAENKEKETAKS

Some targets named below: SUZ12 (human) (UniProt Q15022); EZH1 (human) (UniProt Q92800); CBX3 (human) (UniProt Q13185); EHMT2 (human) (UniProt Q96KQ7); CBX1 (human) (UniProt P83916); CBX5 (human) (UniProt P45973).
Common to all, as to assay: affinity purification with mass spectrometry
Another test has as its target CBX5 (human), P45973. Particulars: remark: other sources report otherwise.

These are yes or no findings as the source states them, for the method shown. Binding seen in cells or lysates may run through a third protein. Here binding means that the protein was enriched with, or labelled near, the bait; the list need not be complete. For some assays here: A no says only that the protein was not detected with the bait.

B1: SKI/DAC domain containing protein 1 (SKDA1) (protein, UniProt Q1XH10 1-908)
chain: MGDLKSGFEEVDGVRLGYLIIKGKQMFALSQVFTDLLKNIPRTTVHKRMDHLKVKKHHCDLEELRKLKAINSIAFHAAKCTLISREDVEALYTSCKTERVLKTKRRRVGRALATKAPPPERAAAASPRPGFWKDKHQLWRGLSGAARPLPISAQSQRPGAAAARPAAHLPQIFSKYPGSHYPEIVRSPCKPPLNYETAPLQGNYVAFPSDPAYFRSLLCSKHPAAAAAAAAAAAAAAAAAAAAAYYQVSAAGPQPKAAAGAGGPGSLSYRCKRKRGGAKDCLLAPHAGARRLLLLPRSYKAKAAAAAAAAAAAAAAAAGATCLERFHLVNGFCPPPHHHHHHHHHHHHHHHRAQPPQQSHHPPHHHRPQPHLGSFPESCSSDSESSSYSDHAANDSDFGSSLSSSSNSVSSEEEEEEGEEEEEEEEEEGGSGASDSSEVSSEEEDSSTESDSSSGSSQVSVQSIRFRRTSFCKPPSVQAQANFLYHLASAAAATKPAAFEDAGRLPDLKSSVKAESPAEWNLQSWAPKASPVYCPASLGSCFAEIRNDRVSEITFPHSEISNAVKRTDLTINCLAEGASSPSPKTNNAFPQQRILREARKCLQTTPTTHCADNNTIAARFLNNDSSGAEANSEKYSKILHCPEFATDLPSSQTDPEVNAAGAAATKAENPCTDTGDKTLPFLHNIKIKVEDSSANEEYEPHLFTNKLKCECNDTKGEFYSVTESKEEDALLTTAKEGFACPEKETPSLNPLAQSQGLSCTLGSPKPEDGEYKFGARVRKNYRTLVLGKRPVLQTPPVKPNLKSARSPRPTGKTETNEGTLDDFTVINRRKKVASNVASAVKRPFHFMANFPCPPSLIIGRDGDLWPAYSLNTTKDSQTPHKAHPIWKWQLGGSAIPLPPSHKFRKFNS
On to B1, for which the binding result with SUZ12 (human) and in the test with EZH1 (human) was “binds” in each case.

B2: ZN644 (protein, UniProt Q9H582 1-1327)
chain: MRSFLQQDVNKTKSRLNVLNGLANNMDDLKINTDITGAKEELLDDNNFISDKESGVHKPKDCQTSFQKNNTLTLPEELSKDKSENALSGGQSSLFIHAGAPTVSSENFILPKGAAVNGPVSHSSLTKTSNMNKGSVSLTTGQPVDQPTTESCSTLKVAADLQLSTPQKASQHQVLFLLSDVAHAKNPTHSNKKLPTSASVGCDIQNSVGSNIKSDGTLINQVEVGEDGEDLLVKDDCVNTVTGISSGTDGFRSENDTNWDPQKEFIQFLMTNEETVDKAPPHSKIGLEKKRKRKMDVSKITRYTEDCFSDSNCVPNKSKMQEVDFLEQNEELQAVDSQKYALSKVKPESTDEDLESVDAFQHLIYNPDKCGEESSPVHTSTFLSNTLKKKCEESDSESPATFSTEEPSFYPCTKCNVNFREKKHLHRHMMYHLDGNSHFRHLNVPRPYACRECGRTFRDRNSLLKHMIIHQERRQKLMEEIRELKELQDEGRSARLQCPQCVFGTNCPKTFVQHAKTHEKDKRYYCCEECNFMAVTENELECHRGIAHGAVVKCPMVTSDIAQRKTQKKTFMKDSVVGSSKKSATYICKMCPFTTSAKSVLKKHTEYLHSSSCVDSFGSPLGLDKRKNDILEEPVDSDSTKTLTKQQSTTFPKNSALKQDVKRTFGSTSQSSSFSKIHKRPHRIQKARKSIAQSGVNMCNQNSSPHKNVTIKSSVDQKPKYFHQAAKEKSNAKANSHYLYRHKYENYRMIKKSGESYPVHFKKEEASSLNSLHLFSSSSNSHNNFISDPHKPDAKRPESFKDHRRVAVKRVIKESKKESSVGGEDLDSYPDFLHKMTVVVLQKLNSAEKKDSYETEDESSWDNVELGDYTTQAIEDETYSDINQEHVNLFPLFKSKVEGQEPGENATLSYDQNDGFYFEYYEDTGSNNFLHEIHDPQHLETADASLSKHSSVFHWTDLSLEKKSCPYCPATFETGVGLSNHVRGHLHRAGLSYEARHVVSPEQIATSDKMQHFKRTGTGTPVKRVRKAIEKSETTSEHTCQLCGGWFDTKIGLSNHVRGHLKRLGKTKWDAHKSPICVLNEMMQNEEKYEKILKALNSRRIIPRPFVAQKLASSDDFISQNVIPLEAYRNGLKTEALSVSASEEEGLNFLNEYDETKPELPSGKKNQSLTLIELLKNKRMGEERNSAISPQKIHNQTARKRFVQKCVLPLNEDSPLMYQPQKMDLTMHSALDCKQKKSRSRSGSKKKMLTLPHGADEVYILRCRFCGLVFRGPLSVQEDWIKHLQRHIVNANLPRTGAGMVEVTSLLKKPASITETSFSLLMAEAAS
In the case of B2, the binding result with CBX3 (human), with EHMT2 (human) and with CBX1 (human) was “binds” each time.

B3: SENP7 (protein, UniProt Q9BQF6 1-1050)
chain: MDKRKLGRRPSSSEIITEGKRKKSSSDLSEIRKMLNAKPEDVHVQSPLSKFRSSERWTLPLQWERSLRNKVISLDHKNKKHIRGCPVTSKSSPERQLKVMLTNVLWTDLGRKFRKTLPRNDANLCDANKVQSDSLPSTSVDSLETCQKLEPLRQSLNLSERIPRVILTNVLGTELGRKYIRTPPVTEGSLSDTDNLQSEQLSSSSDGSLESYQNLNPHKSCYLSERGSQRSKTVDDNSAKQTAHNKEKRRKDDGISLLISDTQPEDLNSGSRGCDHLEQESRNKDVKYSDSKVELTLISRKTKRRLRNNLPDSQYCTSLDKSTEQTKKQEDDSTISTEFEKPSENYHQDPKLPEEITTKPTKSDFTKLSSLNSQELTLSNATKSASAGSTTETVENSNSIDIVGISSLVEKDENELNTIEKPILRGHNEGNQSLISAEPIVVSSDEEGPVEHKSSEILKLQSKQDRETTNENESTSESALLELPLITCESVQMSSELCPYNPVMENISSIMPSNEMDLQLDFIFTSVYIGKIKGASKGCVTITKKYIKIPFQVSLNEISLLVDTTHLKRFGLWKSKDDNHSKRSHAILFFWVSSDYLQEIQTQLEHSVLSQQSKSSEFIFLELHNPVSQREELKLKDIMTEISIISGELELSYPLSWVQAFPLFQNLSSKESSFIHYYCVSTCSFPAGVAVAEEMKLKSVSQPSNTDAAKPTYTFLQKQSSGCYSLSITSNPDEEWREVRHTGLVQKLIVYPPPPTKGGLGVTNEDLECLEEGEFLNDVIIDFYLKYLILEKASDELVERSHIFSSFFYKCLTRKENNLTEDNPNLSMAQRRHKRVRTWTRHINIFNKDYIFVPVNESSHWYLAVICFPWLEEAVYEDFPQTVSQQSQAQQSQNDNKTIDNDLRTTSTLSLSAEDSQSTESNMSVPKKMCKRPCILILDSLKAASVQNTVQNLREYLEVEWEVKLKTHRQFSKTNMVDLCPKVPKQDNSSDCGVYLLQYVESFFKDPIVNFELPIHLEKWFPRHVIKTKREDIRELILKLHLQQQKGSSS
In the case of B3, the binding result with CBX3 (human) and with CBX5 (human) was “binds” in each case.

B4: EHMT1, Q9H9B1 1-1298 (protein)
chain: MAAADAEAVPARGEPQQDCCVKTELLGEETPMAADEGSAEKQAGEAHMAADGETNGSCENSDASSHANAAKHTQDSARVNPQDGTNTLTRIAENGVSERDSEAAKQNHVTADDFVQTSVIGSNGYILNKPALQAQPLRTTSTLASSLPGHAAKTLPGGAGKGRTPSAFPQTPAAPPATLGEGSADTEDRKLPAPGADVKVHRARKTMPKSVVGLHAASKDPREVREARDHKEPKEEINKNISDFGRQQLLPPFPSLHQSLPQNQCYMATTKSQTACLPFVLAAAVSRKKKRRMGTYSLVPKKKTKVLKQRTVIEMFKSITHSTVGSKGEKDLGASSLHVNGESLEMDSDEDDSEELEEDDGHGAEQAAAFPTEDSRTSKESMSEADRAQKMDGESEEEQESVDTGEEEEGGDESDLSSESSIKKKFLKRKGKTDSPWIKPARKRRRRSRKKPSGALGSESYKSSAGSAEQTAPGDSTGYMEVSLDSLDLRVKGILSSQAEGLANGPDVLETDGLQEVPLCSCRMETPKSREITTLANNQCMATESVDHELGRCTNSVVKYELMRPSNKAPLLVLCEDHRGRMVKHQCCPGCGYFCTAGNFMECQPESSISHRFHKDCASRVNNASYCPHCGEESSKAKEVTIAKADTTSTVTPVPGQEKGSALEGRADTTTGSAAGPPLSEDDKLQGAASHVPEGFDPTGPAGLGRPTPGLSQGPGKETLESALIALDSEKPKKLRFHPKQLYFSARQGELQKVLLMLVDGIDPNFKMEHQNKRSPLHAAAEAGHVDICHMLVQAGANIDTCSEDQRTPLMEAAENNHLEAVKYLIKAGALVDPKDAEGSTCLHLAAKKGHYEVVQYLLSNGQMDVNCQDDGGWTPMIWATEYKHVDLVKLLLSKGSDINIRDNEENICLHWAAFSGCVDIAEILLAAKCDLHAVNIHGDSPLHIAARENRYDCVVLFLSRDSDVTLKNKEGETPLQCASLNSQVWSALQMSKALQDSAPDRPSPVERIVSRDIARGYERIPIPCVNAVDSEPCPSNYKYVSQNCVTSPMNIDRNITHLQYCVCIDDCSSSNCMCGQLSMRCWYDKDGRLLPEFNMAEPPLIFECNHACSCWRNCRNRVVQNGLRARLQLYRTRDMGWGVRSLQDIPPGTFVCEYVGELISDSEADVREEDSYLFDLDNKDGEVYCIDARFYGNVSRFINHHCEPNLVPVRVFMAHQDLRFPRIAFFSTRLIEAGEQLGFDYGERFWDIKGKLFSCRCGSPKCRHSSAALAQRQASAAQEAQEDGLPDTSSAAAADPL
Regarding B4, in the test with CBX5 (human), P45973, the binding entry was “no binding”.
